Measurements from article PMC10932545.
Results are given in words; binding and its absence hold for the method and conditions named. Binding seen in cells or lysates may run through a third protein. Tags and fused reporters may be left off the sequences shown.

Target: T1, FBXO24-HA (FBXO24 with a C-terminal HA epitope tag, from Fbxo24-HA-tagged transgenic mice) (mouse) (UniProt Q9D417)
T1 sequence: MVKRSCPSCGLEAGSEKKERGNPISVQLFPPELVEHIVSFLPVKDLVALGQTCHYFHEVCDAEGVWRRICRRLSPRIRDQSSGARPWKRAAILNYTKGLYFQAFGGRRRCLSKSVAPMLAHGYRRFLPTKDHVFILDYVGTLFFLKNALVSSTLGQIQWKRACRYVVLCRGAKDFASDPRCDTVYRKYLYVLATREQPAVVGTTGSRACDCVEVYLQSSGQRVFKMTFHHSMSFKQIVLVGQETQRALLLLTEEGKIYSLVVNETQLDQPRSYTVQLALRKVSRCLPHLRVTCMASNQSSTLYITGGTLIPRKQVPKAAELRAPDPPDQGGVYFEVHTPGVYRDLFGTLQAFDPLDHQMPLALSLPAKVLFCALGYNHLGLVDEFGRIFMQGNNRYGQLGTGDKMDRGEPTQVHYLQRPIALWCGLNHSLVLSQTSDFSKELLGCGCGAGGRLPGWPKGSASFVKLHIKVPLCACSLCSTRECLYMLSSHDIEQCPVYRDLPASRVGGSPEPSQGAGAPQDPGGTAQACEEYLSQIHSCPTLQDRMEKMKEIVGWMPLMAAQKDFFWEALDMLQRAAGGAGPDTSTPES
Test: co-IP; testis lysate of Fbxo24-HA-tagged mice in IP buffer, anti-HA nanobody agarose beads, 4°C overnight, western blot; wild-type testis as negative control

- binding: no binding
Substance: histone H2B (mouse (endogenous in testis))
